Reference: article PMC7819943, “Rice protein-binding microarrays: a tool to detect cis-acting elements near promoter regions in rice”
This is one part of the list.

Molecular target: T1, OsSMF1 (Oryza sativa, UniProt Q6ZLB0 1-436)
T1 sequence: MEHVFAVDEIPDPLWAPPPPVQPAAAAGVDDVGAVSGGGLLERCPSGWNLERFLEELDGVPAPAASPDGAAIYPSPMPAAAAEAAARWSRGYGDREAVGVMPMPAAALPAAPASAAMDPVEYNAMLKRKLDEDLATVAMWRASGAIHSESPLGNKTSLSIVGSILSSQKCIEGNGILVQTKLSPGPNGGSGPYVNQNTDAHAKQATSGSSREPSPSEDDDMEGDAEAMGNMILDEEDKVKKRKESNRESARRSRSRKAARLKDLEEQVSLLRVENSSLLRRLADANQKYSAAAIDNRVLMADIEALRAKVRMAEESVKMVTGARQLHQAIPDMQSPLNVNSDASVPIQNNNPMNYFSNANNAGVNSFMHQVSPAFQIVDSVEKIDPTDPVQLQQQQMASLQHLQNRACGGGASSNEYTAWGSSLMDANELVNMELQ
Assay: protein-binding microarray (RPBM); PBS, 2% BSA, 51.3 ng/ul salmon testes DNA, 50 uM zinc acetate, 200 nM TF, 25 C, 1 h; high values mean tight binding
Settings: protein: recombinant; tags: N-terminal polyhistidine and DsRed monomer fusion (pET32a); chain copies: 2; label: CyDye5-dUTP incorporated in the synthesized complementary strand; 3' TTTTT single-stranded linker to array surface; dsDNA, one strand shown
Summary of the method: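 In PBS with 2% BSA, salmon testes DNA and 50 µM zinc acetate, 200 nM protein was incubated on a custom Agilent array at 25 °C for 1 h and then washed off. The array had been made double-stranded by primer extension with Cy5-dUTP and blocked with 2% BSA. The proteins were transcription factors fused N-terminally to polyhistidine and DsRed, expressed in E. coli BL21-CodonPlus and purified on Ni–NTA. The binding signal is per-feature fluorescence intensity (arbitrary units) from an Axon 4000B scanner.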

Sequence | binding signal
AAAATATGCTGACATGGATATCTTATAGAGAGCCTATAGACGGAGTCACCTAGTGCAG | 5890 fluorescence intensity (a.u.)
TTCCTGTTCTATTCTTTCAGCAATGGTTTAGGTCAACACACGGAGTCACCTAGTGCAG | 19100 fluorescence intensity (a.u.)
ACATGGGCTTTGAGAAATGTAAATATTAATGAATCGCTTGCGGAGTCACCTAGTGCAG | 3410 fluorescence intensity (a.u.)
GGGCCCGGAGGACGACGAGGACGACAGCGAGGACGTCCCCCGGAGTCACCTAGTGCAG | 3300 fluorescence intensity (a.u.)
CTATTGTTCAAGATTTCGTCATGCTTATGACCGCAAAACCCGGAGTCACCTAGTGCAG | 4240 fluorescence intensity (a.u.)
GCAGATACGAATGTTGCCACTATAAATACACGTGTACGTTCGGAGTCACCTAGTGCAG | 8290 fluorescence intensity (a.u.)
ATGCGCATCTTCCTCCCTCATGACATTGCAGTTCCAAGTACGGAGTCACCTAGTGCAG | 3660 fluorescence intensity (a.u.)
TTAGGCCAATGCATTACTGCTAGCAGCTGCCTATCAGTTGCGGAGTCACCTAGTGCAG | 3180 fluorescence intensity (a.u.)
CATGGTCTATGGCATTCGTAACGGATTGAACGCCACCGGCCGGAGTCACCTAGTGCAG | 21800 fluorescence intensity (a.u.)
TTTGCCTCCCTGTTCCTCTGTTGGTCACAGCAGATGCTGACGGAGTCACCTAGTGCAG | 4370 fluorescence intensity (a.u.)
GATGCGATGCGATGTGATGGCGATGGCGTCATCCGAGCGCCGGAGTCACCTAGTGCAG | 4550 fluorescence intensity (a.u.)
ACGGCCTTCATCCTGGGCCACTCCCACGTGCAGTGCAAGCCGGAGTCACCTAGTGCAG | 3430 fluorescence intensity (a.u.)
TTCGTCCGTGCGTGCGTGCGTGCGCGACTCGCTCTCACACCGGAGTCACCTAGTGCAG | 10700 fluorescence intensity (a.u.)
AAATGTCAACGTGTCACTAGGAAAAGTCAAAATAATTCCCCGGAGTCACCTAGTGCAG | 6400 fluorescence intensity (a.u.)
CTTCATACTGCAGTATCTGAAAAGATGTCATTGTAAAGTTCGGAGTCACCTAGTGCAG | 3140 fluorescence intensity (a.u.)
CTCCCATTTTAAGTGGTAGTTGTAAATTTCTGTGTTTAACCGGAGTCACCTAGTGCAG | 3320 fluorescence intensity (a.u.)
CCTAGGATAGGATGTGACATATTCTATACCAACGAATCTGCGGAGTCACCTAGTGCAG | 3680 fluorescence intensity (a.u.)
CTCTCGAGCTCACCCCGTCATCCACCTCACCCGCGCCGTCCGGAGTCACCTAGTGCAG | 5820 fluorescence intensity (a.u.)
CGGTATTTTCAGCTCTTTGAGGTGGTGGGCTGGTGGCGTACGGAGTCACCTAGTGCAG | 3290 fluorescence intensity (a.u.)
GGATATAGTTTTATAAACTAGTCATGTGTTGTGTGGTTGACGGAGTCACCTAGTGCAG | 3840 fluorescence intensity (a.u.)
GGCTACGTCACTCAGCCGTCAGTTACTCGTCAAATCACCACGGAGTCACCTAGTGCAG | 7060 fluorescence intensity (a.u.)

Sequence | binding signal
TTCACTCGAGTTGAGTTGGTCCAGGATGTTGCCCACAGTGCGGAGTCACCTAGTGCAG | 26700 fluorescence intensity (a.u.)
GCTTCGTGGGCCTCTCACTTGAGTCACTGGCACTCCATTCCGGAGTCACCTAGTGCAG | 3570 fluorescence intensity (a.u.)
TGCGCTTGCCACATCAGCCTGGCCATGAACAAAGTTTTCGCGGAGTCACCTAGTGCAG | 13200 fluorescence intensity (a.u.)
TACTCTTTTCTTTGTCATGGTTTTCTCATTTTCCCCTATGCGGAGTCACCTAGTGCAG | 3580 fluorescence intensity (a.u.)
TCATATGCTGAGAGCCTGGAACATCAGCTGTGCTGCGTGGCGGAGTCACCTAGTGCAG | 4510 fluorescence intensity (a.u.)
AGGTAGTGGTGGATGGGGAGGAGGAGGAGCCTTAGGTAGTCGGAGTCACCTAGTGCAG | 3850 fluorescence intensity (a.u.)
TAGGGTTGGCGGGTGGCGAGGCGACTCGGCTGTTCCCCATCGGAGTCACCTAGTGCAG | 3570 fluorescence intensity (a.u.)
CTCGCTGCTGGTGGTGGTGGAGGATAGGTACAAGCAGCTGCGGAGTCACCTAGTGCAG | 3540 fluorescence intensity (a.u.)
TGCCATGTGGATATTTGGAAGGCGTGGCGGCATGTGCCCCCGGAGTCACCTAGTGCAG | 3330 fluorescence intensity (a.u.)
TTGCTCATGTCATGTGGTCACTCCCCAAGTCACCAGCATCCGGAGTCACCTAGTGCAG | 3250 fluorescence intensity (a.u.)
ATGGAGGGTCGGCCTTATGATGACACCAACTATGTCTATGCGGAGTCACCTAGTGCAG | 3880 fluorescence intensity (a.u.)
GACGTCGCGCACACGTCGGCGTCGCTGCTCTGGCTGTACGCGGAGTCACCTAGTGCAG | 5790 fluorescence intensity (a.u.)
AAGAGGGGAAAAGAACGCTATCTTCACGGGAGGCAGTTCCCGGAGTCACCTAGTGCAG | 3300 fluorescence intensity (a.u.)
GACGCAAACGCAACCCATTGGCTCTTGGCAAATGCAACAGCGGAGTCACCTAGTGCAG | 22300 fluorescence intensity (a.u.)
CCGACCGCCACGGCGACTCGTCTCCCCACTCCACGTGGGCCGGAGTCACCTAGTGCAG | 6720 fluorescence intensity (a.u.)
TCCTCCACTCACTTTCATGTACAGCTCACTTTCTTGGCCTCGGAGTCACCTAGTGCAG | 4100 fluorescence intensity (a.u.)
CAAGCAGTTGGCTTAACTCAACCACGTGTGCGGCCACCTTCGGAGTCACCTAGTGCAG | 5590 fluorescence intensity (a.u.)
TTCCGAGTTCCGACCCGCGCCGCCACGCCACGCTACATCCCGGAGTCACCTAGTGCAG | 4680 fluorescence intensity (a.u.)
CACATCACATCACATGCCGGCCCGGCTCGCCATTGATCACCGGAGTCACCTAGTGCAG | 3340 fluorescence intensity (a.u.)
CACGCGATTCACAATTAGAAAAGGCTTGACCTGGCCTTCGCGGAGTCACCTAGTGCAG | 3560 fluorescence intensity (a.u.)
CCTACACCTCGAGCAAGTTTCCTATAATTGAGGCAGATTACGGAGTCACCTAGTGCAG | 23100 fluorescence intensity (a.u.)

A stretch taken from the entries so far:
Sequence | binding signal
CTATTGTTCAAGATTTCGTCATGCTTATGACCGCAAAACCCGGAGTCACCTAGTGCAG | 4240 fluorescence intensity (a.u.)
GCAGATACGAATGTTGCCACTATAAATACACGTGTACGTTCGGAGTCACCTAGTGCAG | 8290 fluorescence intensity (a.u.)
ATGCGCATCTTCCTCCCTCATGACATTGCAGTTCCAAGTACGGAGTCACCTAGTGCAG | 3660 fluorescence intensity (a.u.)
TTAGGCCAATGCATTACTGCTAGCAGCTGCCTATCAGTTGCGGAGTCACCTAGTGCAG | 3180 fluorescence intensity (a.u.)
CATGGTCTATGGCATTCGTAACGGATTGAACGCCACCGGCCGGAGTCACCTAGTGCAG | 21800 fluorescence intensity (a.u.)
TTTGCCTCCCTGTTCCTCTGTTGGTCACAGCAGATGCTGACGGAGTCACCTAGTGCAG | 4370 fluorescence intensity (a.u.)
GATGCGATGCGATGTGATGGCGATGGCGTCATCCGAGCGCCGGAGTCACCTAGTGCAG | 4550 fluorescence intensity (a.u.)
ACGGCCTTCATCCTGGGCCACTCCCACGTGCAGTGCAAGCCGGAGTCACCTAGTGCAG | 3430 fluorescence intensity (a.u.)
